# In patent US6218112A, “Optimization of gene delivery and gene delivery system” (Cobra Therapeutics Limited, priority 1997, dated 2001):
# At least one read-out could not be matched to a standard name with certainty. * marks the point of attachment. Acm = CC(=O)NC*
# Tested on: plasmid nucleic acid pRSVLuc
# Test: Surface plasmon resonance (BIAcore) binding kinetics of peptides/conjugates to immobilized biotinylated plasmid DNA
# Settings: for t1/2: dissociation half-life, SPR, PBS, 25° C.
# Experimental: In the examples described below, SPR was detected using the BIAcore system. This machine contained an SPR detector and an integrated microfluidic cartridge which is engineered such that an analyte solution (cationic peptide) is continuously passed over the sensor chip. The sensor chip consists of a glass plate coated with a thin film of gold covered in a layer of carboyxymethyl dextran. The chip used has a dextran layer to which streptavidin is covalently attached. The chip is prepared for use by adding biotinylated nucleic acid which will be bound to the chip via the streptavidin-biotin interaction, and the same chip is used in a series of experiments.
# As material binds to the immobilized nucleic acid molecule on the sensor chip, the SPR angle of plane polarized light shining on the surface of the chip is monitored by the detector. Changes in angle are defined as resonance units (RU) and data are collected every second. Background effects are detected and automatically subtracted by the use of a control flow cell in line with the nucleic acid flow cell.
# A typical sensorgram has three phases: an association phase, an equilibrium phase and a dissociation phase (see FIG. 1). The rise in signal occurs as more peptide binds to the immobilized plasmid DNA until equilibrium conditions are reached. The height of the peak is directly proportional to the mass of peptide bound. If the flow continues with buffer containing no peptide, peptide begins to dissociate from the complex and the resonance signal is reduced. The sensorgram can be used to compute apparent rate constants for each of the three individual processes.
# (1) dC/dt=ka [PF ] [Pmax -PB ]-kd [PB ]
# Measurement of Binding Kinetics by Surface Plasmon Resonance
# A 6 kilobase (kb) plasmid DNA (pRSVLuc) was biotinylated using photoactivatable biotin (Pierce and Warriner) as per manufacturer's instructions.
# A sensor chip with immobilized streptavidin (SA5) was conditioned following manufacturer's instructions, i.e., three one-minute injections of 1 M NaCl: 50 mM NaOH followed by one 1 min injection of 0.5% SDS. Flow rate on the BlAcore sensing device was 20 μl per min, running buffer was phosphate buffered saline (PBS). Flow path was flow cells 1 and 2.
# The flow path was switched to flow cell 2 only and the flow rate was reduced to 10 μl per minute. Biotinylated plasmid at a concentration of […] in 0.5M NaCl was injected for 3 mins.
# Phosphate buffered saline was used as running buffer at a flow rate of 20 μl per minute. The flow path was over flow cells 1 and 2. Flow cell 1 was used as a reference cell. The experiments were carried out at a temperature of 25° C.
# Peptides were injected at various concentrations for three minutes. The injection was followed by a 5 min dissociation phase before the injection port was washed. The sensor chip was regenerated by the injection of 2M NaCl for 1 min. If necessary, this injection was repeated to bring the response back down to baseline before the next peptide sample was injected.
# The data was analysed using the methods described in the handbook (BIAevaluation 2.1. Software Handbook, Pharmacia Biosensor AB, Uppsala, Sweden).
# Essentially the plots were evaluated as follows: The dissociation constant, kd, was determined first. […] The association constant, ka, was then calculated by fitting the related association model on that part of the association curve where a plot of In(abs(dY/dt) versus time was linear. KD were approximated by dividing the calculated kd with the calculated ka.
Substance,t1/2 [min],"Kd (approximate values, read-out: equilibrium dissociation constant KD) [nM]"
H-KKSPKKAKKPAAKKSPKKAKKPAYC(Acm)-OH [NBC8],0.183,
H-TKKSPKKAKKPAAKKSPKKAKKPAAKKSPKKAKKPAAC(Acm)-OH [NBC9],3.93,
H-TKKAWKKAEKKAAKKCGVSAKKAAKKAWKKA-NH2 [NBC11],71.43,~7.8
H-KKSPKKAKKPAAKKSPKKAKKPAAKKSPKKAKKPAAKKSPKKAKKPAYC(Acm)-OH [NBC10],10.5,
